These are yes or no findings as the source states them, for the method shown. Some results given as binding are weak or reduced against the parent protein; the word gives no strength.

The chains behind the UniProt entries cited, without tags or fusion partners. Residues count along the entry.
UniProt P78324, residues 31-149: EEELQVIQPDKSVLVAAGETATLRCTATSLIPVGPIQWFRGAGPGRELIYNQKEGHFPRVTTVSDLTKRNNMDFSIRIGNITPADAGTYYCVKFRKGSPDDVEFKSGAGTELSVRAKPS

The record followed here is patent US20180127480A1.

Assay [1] concerns the target SIRPα a1d1 expressed on yeast (human) (UniProt P78324). Description: titration on SIRPα-displaying yeast, flow cytometry. For orientation: Flow cytometry measures light scatter and fluorescence of single cells or particles in a stream.
Assay [2] shares this target. Description: flow cytometry titration on yeast expressing SIRPα a1d1.
For assay [3] the target is unchanged. Description: titration on SIRPα-displaying yeast, flow cytometry; wild type is the weaker one.

B1: biotinylated WT CD47 (ligand)
chain: QLLFNKTKSVEFTFGNDTVVIPCFVTNMEAQNTTEVYVKWKFKGRDIYTFDGALNKSTVPTDFSSAKIEVSQLLKGDASLKMDKSDAVSHTGNYTCEVTELTREGETIIELKYRVVSGLNDIFEAQKIEWHE
modifications: biotin on the biotin acceptor peptide tag (BirA ligase)
For B1, the binding result in assay [1], in assay [2] and in assay [3] was “binds” each time.

B2: biotinylated high affinity CD47 variant N3612 C15G (designed binder)
chain: WQPPLLFNKTKSVEFTFGNDTVVIPCFVTNMEAQNTTEVYVKWKFKGRDIYTFDGQANKSTVPTDFSSAKIEVSQLLKGDASLKMDKSDAVSHTGNYTCEVTELTREGETIIELKYRVVSGLNDIFEAQKIEWHE
modifications: biotin on the biotin acceptor peptide tag (BirA ligase)
For B2, the binding result in assay [1] and in assay [2] was “binds” each time.
